The values below come from paper PMC5349851, “Combinatorial bZIP dimers display complex DNA-binding specificity landscapes”.

Sequences of proteins named here, by UniProt entry; tags and fusion partners are left off. Residues count along the entry.
UniProt P49715, 273-345: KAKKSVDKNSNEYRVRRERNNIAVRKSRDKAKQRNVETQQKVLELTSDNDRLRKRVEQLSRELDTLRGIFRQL

Common to all, as to assay: EMSA-FRET
In general terms: Mobility shift assays separate free from complexed probe on a gel.

The target of one data set is T1, ATF3 (human) (UniProt P18847).
T1 sequence: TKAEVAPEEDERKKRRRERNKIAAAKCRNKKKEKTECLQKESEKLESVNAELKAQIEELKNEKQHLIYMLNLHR
Conditions: homodimer, EMSA-FRET: 50 nM each labeled protein, 10 nM DNA, 50 mM potassium phosphate pH 7.4, 150 mM KCl, 0.1% BSA, 0.1% Tween-20, 5 ng/ul poly(dI-dC), 0.5 mM TCEP, recombinant protein, label: 5' TYE 665.

A further data set has as its target CEBPA (human) (UniProt P49715). The conditions noted are these: homodimer, weaker or no binding; EMSA-FRET: 50 nM each labeled protein, 10 nM DNA, 50 mM potassium phosphate pH 7.4, 150 mM KCl, 0.1% BSA, 0.1% Tween-20, 5 ng/ul poly(dI-dC), 0.5 mM TCEP; recombinant protein; label: 5' TYE 665.
Another data set addresses T2, CEBPG (human) (UniProt P53567).
T2 sequence: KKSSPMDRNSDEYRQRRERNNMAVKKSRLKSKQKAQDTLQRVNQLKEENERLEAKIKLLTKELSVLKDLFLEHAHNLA
The conditions noted are these: homodimer; EMSA-FRET: 50 nM each labeled protein, 10 nM DNA, 50 mM potassium phosphate pH 7.4, 150 mM KCl, 0.1% BSA, 0.1% Tween-20, 5 ng/ul poly(dI-dC), 0.5 mM TCEP; recombinant protein; label: 5' TYE 665.

Another data set addresses T3, BATF3 (human) (UniProt Q9NR55).
T3 sequence: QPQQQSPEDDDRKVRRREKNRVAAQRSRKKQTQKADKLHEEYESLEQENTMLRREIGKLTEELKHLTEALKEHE
Conditions: homodimer, weaker or no binding; EMSA-FRET: 50 nM each labeled protein, 10 nM DNA, 50 mM potassium phosphate pH 7.4, 150 mM KCl, 0.1% BSA, 0.1% Tween-20, 5 ng/ul poly(dI-dC), 0.5 mM TCEP; recombinant protein; label: 5' TYE 665.

Weaker means in comparison with the reference protein, sequence or condition of that experiment. For part of these data: Where a protein sequence is shown, tags need not be part of it. For part of these data: The exact form of at least one protein or probe is not confirmed. For part of these data: At least one verdict rests on a figure or table, not on a statement of the authors.

Regarding “GAGTCCATGAGCAATCCGTAG (double strand) [AP1/CAAT (TRE-CAAT)]”, the binding result with ATF3 (human) (weaker or no binding) and in the data set with CEBPA (human) was “binds more weakly” in each case.
For “GAGTCCATGACGCAATCCGTAG (double strand) [CRE/CAAT]”, the binding result with ATF3 (human) and with CEBPG (human) was “binds more weakly” each time.
For “GAGTCCGCCACGCAATCCGTAG (double strand) [CREA/CAAT (CRE-L-CAAT)]”, the binding result in the data set with BATF3 (human) and with CEBPA (human) was “binds more weakly” each time.
